Assay results from PubChem BioAssay AID2685 (National Center for Advancing Translational Sciences (NCATS), 2010).
The list shows a part of the results. Further columns of the screen follow, without active or inactive calls. Most of these compounds were active or inconclusive in the main read-out, so they are no random draw. The note in brackets gives the kind of curve behind each potency; many fits are weak.

Test: qHTS Assay for Lipid Storage Modulators in Drosophila S3 Cells;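 for cell number change: cells counted by Cell Tracker Red CMTPX staining in the red channel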
Settings: BODIPY lipid droplet fluorescence, 18-24 h; for cell number change: measured here: cell count max response, cells fed with added oleic acid
In short: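 Laser-scanning cytometry quantifies lipid droplet accumulation (500–530 nm total intensity; droplet/cell object ratio) in oleic acid-fed (400 uM added) Drosophila S3 cells treated with a concentration series. 20 uM Triacsin C defined 100% inhibition.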

[1] = measured here: lipid fluorescence (Fed channel) AC50, cells fed with added oleic acid
[2] = measured here: cell number channel AC50, cells fed with added oleic acid

| Structure (SMILES) | cell number change [%] | AC50 [1] | AC50 [2] |
| --- | --- | --- | --- |
| COc1cc(C(Nc2ccc(S(=O)(=O)NCC3CCCO3)cc2)C(=O)NC(C)(C)C)cc(OC)c1OC (configuration not stated) | -20.1 | 23.1 µM [falling, single point] |  |
| Nc1nnnn1/N=C/c1ccccc1OCc1ccccc1 |  | 1.16 µM [rising, full curve] |  |
| NC(=O)c1ccc(C(=O)c2ccc([N+](=O)[O-])cc2)cc1 | -23.5 | 6.51 µM [rising, partial curve] |  |
| COc1ccc(-c2csc(NCc3ccco3)n2)cc1C | 9.46 | 0.651 µM [rising, single point] |  |
| O=C1/C(=C/c2cccnc2)Sc2ccccc21 | -20.6 | 23.1 µM [falling, single point] |  |
| CCNC(=O)NC(=O)COC(=O)CNC(=O)COc1ccccc1 | -10.5 | 1.16 µM [falling, full curve, poor fit] |  |
| O=C(Nc1nnc(-c2ccco2)s1)C1CC1 | -17.3 |  |  |
| CC1CCC2(CC1)NC(=O)N(CC(=O)N(Cc1ccccc1)C(C)(C)C)C2=O (configuration not stated) | -17.8 | 6.51 µM [rising, partial curve, poor fit] |  |
| COc1ccc(C(=O)NCC2CCCCC2)cc1S(=O)(=O)N1CCCC1 | 13.1 | 29.1 µM [falling, single point] |  |
| CC(=O)Nc1cccc(NC(=O)CSc2nnc(Cc3cccn3C)n2-c2ccc(C)cc2)c1 | -20.5 | 0.0517 µM [falling, full curve] |  |
| CCOc1c(Cl)cc(/C=N/O)cc1OC | -2.88 | 6.51 µM [falling, single point] |  |
| O=C(CN1C(=O)c2ccc([N+](=O)[O-])cc2C1=O)NC1CCCCCC1 | -75 |  | 4.11 µM [falling, full curve] |
| CN1/C(=C\C=C2/C(=O)Oc3ccccc3C2=O)C(C)(C)c2ccccc21 | -99.8 | 2.31 µM [falling, full curve] | 5.17 µM [falling, full curve] |
| Cc1ccc(NC(=O)N2CCCC2C(=O)NCCC2=CCCCC2)cc1 (configuration not stated) | 0.068 | 13 µM [falling, partial curve, poor fit] |  |
| Cc1cccc(NS(=O)(=O)c2ccc(C(=O)N3CCN(c4ccccc4O)CC3)cc2)c1C | -25.7 | 29.1 µM [falling, single point] |  |
| CCOC(=O)c1c(CC(C)C)csc1NC(=O)COC(=O)C1=NNC(=O)CC1 | 8 |  |  |
| O=C(COC(=O)c1cc(Cl)ccc1O)NCCNC(=O)COC(=O)c1cc(Cl)ccc1O | 18.5 |  |  |
| CCOc1ccc(NC(=O)NCC2CCN(Cc3ccc(F)cc3)CC2)cc1 | -26.2 |  |  |

Part of the list above, with tabs:
Structure (SMILES)	cell number change [%]	AC50 [1]	AC50 [2]
COc1cc(C(Nc2ccc(S(=O)(=O)NCC3CCCO3)cc2)C(=O)NC(C)(C)C)cc(OC)c1OC (configuration not stated)	-20.1	23.1 µM [falling, single point]	
Nc1nnnn1/N=C/c1ccccc1OCc1ccccc1		1.16 µM [rising, full curve]	
